Assay results from PMC3284570.
These are yes or no findings as the source states them, for the method shown. Binding seen in cells or lysates may run through a third protein. Binding can be weak; no strength is given.

Chains of the proteins cited; added tags and fusions are not shown. Lines headed by an entry give the natural chain unless they say otherwise; changes in a name come on top.
UniProt Q09472: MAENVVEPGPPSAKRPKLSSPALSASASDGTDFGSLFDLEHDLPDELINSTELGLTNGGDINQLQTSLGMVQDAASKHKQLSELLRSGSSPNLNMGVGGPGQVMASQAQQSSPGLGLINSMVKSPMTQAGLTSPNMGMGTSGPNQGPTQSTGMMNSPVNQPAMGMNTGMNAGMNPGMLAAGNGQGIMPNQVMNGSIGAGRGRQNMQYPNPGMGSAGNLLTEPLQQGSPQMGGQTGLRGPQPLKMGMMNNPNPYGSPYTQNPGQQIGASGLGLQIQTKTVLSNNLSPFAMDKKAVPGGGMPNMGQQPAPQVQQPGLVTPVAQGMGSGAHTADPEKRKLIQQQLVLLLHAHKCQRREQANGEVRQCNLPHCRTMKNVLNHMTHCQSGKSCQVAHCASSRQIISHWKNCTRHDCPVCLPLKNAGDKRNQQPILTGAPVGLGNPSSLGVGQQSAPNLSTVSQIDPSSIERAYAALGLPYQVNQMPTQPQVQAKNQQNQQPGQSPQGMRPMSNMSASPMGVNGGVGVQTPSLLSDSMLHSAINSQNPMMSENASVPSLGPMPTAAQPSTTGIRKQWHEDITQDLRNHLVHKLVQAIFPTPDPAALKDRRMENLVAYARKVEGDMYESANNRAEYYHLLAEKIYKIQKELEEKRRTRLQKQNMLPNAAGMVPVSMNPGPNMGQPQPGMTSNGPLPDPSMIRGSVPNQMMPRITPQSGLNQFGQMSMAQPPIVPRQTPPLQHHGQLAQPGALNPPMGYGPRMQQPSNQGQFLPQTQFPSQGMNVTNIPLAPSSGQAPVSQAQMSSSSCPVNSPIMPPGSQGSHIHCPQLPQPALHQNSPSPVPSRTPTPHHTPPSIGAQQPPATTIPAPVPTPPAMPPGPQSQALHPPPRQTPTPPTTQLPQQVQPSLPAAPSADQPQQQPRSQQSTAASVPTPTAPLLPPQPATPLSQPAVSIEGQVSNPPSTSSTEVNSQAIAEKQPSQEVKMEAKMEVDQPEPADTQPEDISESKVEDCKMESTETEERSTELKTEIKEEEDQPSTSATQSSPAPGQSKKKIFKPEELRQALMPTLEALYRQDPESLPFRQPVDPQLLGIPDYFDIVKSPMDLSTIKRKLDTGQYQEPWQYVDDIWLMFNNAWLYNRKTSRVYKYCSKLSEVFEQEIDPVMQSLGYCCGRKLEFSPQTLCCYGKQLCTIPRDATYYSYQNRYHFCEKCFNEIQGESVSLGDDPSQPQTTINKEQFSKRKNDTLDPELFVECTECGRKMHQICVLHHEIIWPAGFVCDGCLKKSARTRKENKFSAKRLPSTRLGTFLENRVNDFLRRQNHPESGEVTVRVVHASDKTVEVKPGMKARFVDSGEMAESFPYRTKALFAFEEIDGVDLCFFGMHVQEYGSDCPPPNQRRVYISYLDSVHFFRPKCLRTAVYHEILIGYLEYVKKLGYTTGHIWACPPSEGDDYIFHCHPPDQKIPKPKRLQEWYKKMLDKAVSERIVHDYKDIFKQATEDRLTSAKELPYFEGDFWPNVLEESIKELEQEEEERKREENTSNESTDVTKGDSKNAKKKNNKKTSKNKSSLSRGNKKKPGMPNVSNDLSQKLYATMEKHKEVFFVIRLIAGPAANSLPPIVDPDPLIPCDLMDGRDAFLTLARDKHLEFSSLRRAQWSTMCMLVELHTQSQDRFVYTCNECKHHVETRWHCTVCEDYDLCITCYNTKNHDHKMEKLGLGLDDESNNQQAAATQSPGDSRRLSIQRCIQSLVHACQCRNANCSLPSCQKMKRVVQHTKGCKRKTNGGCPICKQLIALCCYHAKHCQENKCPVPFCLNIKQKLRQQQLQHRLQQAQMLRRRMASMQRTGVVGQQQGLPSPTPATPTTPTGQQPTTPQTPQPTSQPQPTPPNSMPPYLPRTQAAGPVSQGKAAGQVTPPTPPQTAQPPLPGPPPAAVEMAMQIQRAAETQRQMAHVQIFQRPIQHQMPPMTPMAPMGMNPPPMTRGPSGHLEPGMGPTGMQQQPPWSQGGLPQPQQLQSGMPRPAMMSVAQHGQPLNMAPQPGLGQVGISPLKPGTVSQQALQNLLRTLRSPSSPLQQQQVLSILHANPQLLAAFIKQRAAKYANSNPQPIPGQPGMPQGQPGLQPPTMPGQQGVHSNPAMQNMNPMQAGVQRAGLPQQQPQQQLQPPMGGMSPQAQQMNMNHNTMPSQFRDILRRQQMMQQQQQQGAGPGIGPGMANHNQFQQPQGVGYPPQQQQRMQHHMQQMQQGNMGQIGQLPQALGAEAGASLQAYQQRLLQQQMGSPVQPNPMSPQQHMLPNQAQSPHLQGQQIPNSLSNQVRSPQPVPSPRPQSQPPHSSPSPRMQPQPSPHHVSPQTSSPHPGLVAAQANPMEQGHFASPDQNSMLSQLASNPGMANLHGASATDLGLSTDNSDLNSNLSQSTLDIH

Target: CH3 deleted P300 (HA-tagged) (human) (UniProt Q09472)
Assay: co-IP; TNE lysates of transfected HuCCT-1 cells; P300 immunoprecipitated, complexes collected on protein G Dynabeads, Western blot; with or without TGF-beta1 (5 ng/mL, 24 hrs)

- binding: binds
B1: ZEB1 (co-immunoprecipitated with P300; source not stated) (protein, UniProt P37275 1-1124)
chain: MADGPRCKRRKQANPRRNNVTNYNTVVETNSDSDDEDKLHIVEEESVTDAADCEGVPEDDLPTDQTVLPGRSSEREGNAKNCWEDDRKEGQEILGPEAQADEAGCTVKDDECESDAENEQNHDPNVEEFLQQQDTAVIFPEAPEEDQRQGTPEASGHDENGTPDAFSQLLTCPYCDRGYKRFTSLKEHIKYRHEKNEDNFSCSLCSYTFAYRTQLERHMTSHKSGRDQRHVTQSGCNRKFKCTECGKAFKYKHHLKEHLRIHSGEKPYECPNCKKRFSHSGSYSSHISSKKCISLIPVNGRPRTGLKTSQCSSPSLSASPGSPTRPQIRQKIENKPLQEQLSVNQIKTEPVDYEFKPIVVASGINCSTPLQNGVFTGGGPLQATSSPQGMVQAVVLPTVGLVSPISINLSDIQNVLKVAVDGNVIRQVLENNQANLASKEQETINASPIQQGGHSVISAISLPLVDQDGTTKIIINYSLEQPSQLQVVPQNLKKENPVATNSCKSEKLPEDLTVKSEKDKSFEGGVNDSTCLLCDDCPGDINALPELKHYDLKQPTQPPPLPAAEAEKPESSVSSATGDGNLSPSQPPLKNLLSLLKAYYALNAQPSAEELSKIADSVNLPLDVVKKWFEKMQAGQISVQSSEPSSPEPGKVNIPAKNNDQPQSANANEPQDSTVNLQSPLKMTNSPVLPVGSTTNGSRSSTPSPSPLNLSSSRNTQGYLYTAEGAQEEPQVEPLDLSLPKQQGELLERSTITSVYQNSVYSVQEEPLNLSCAKKEPQKDSCVTDSEPVVNVIPPSANPINIAIPTVTAQLPTIVAIADQNSVPCLRALAANKQTILIPQVAYTYSTTVSPAVQEPPLKVIQPNGNQDERQDTSSEGVSNVEDQNDSDSTPPKKKMRKTENGMYACDLCDKIFQKSSSLLRHKYEHTGKRPHECGICKKAFKHKHHLIEHMRLHSGEKPYQCDKCGKRFSHSGSYSQHMNHRYSYCKREAEERDSTEQEEAGPEILSNEHVGARASPSQGDSDERESLTREEDEDSEKEEEEEDKEMEELQEEKECEKPQGDEEEEEEEEEVEEEEVEEAENEGEEAKTEGLMKDDRAESQASSLGQKVGESSEQVSEEKTNEA
